Source: article PMC8927045, “MAP3K1 Variant Causes Hyperactivation of Wnt4/β-Catenin/FOXL2 Signaling Contributing to 46,XY Disorders/Differences of Sex Development” (Frontiers in Genetics, 2022)
No constants are given. Whether binding was seen depends on the method and setting. In cells and extracts the contact can be indirect. Some binding calls cover weakened binding; strength is not graded here.

Chains of the proteins cited; added tags and fusions are not shown.
UniProt P61586: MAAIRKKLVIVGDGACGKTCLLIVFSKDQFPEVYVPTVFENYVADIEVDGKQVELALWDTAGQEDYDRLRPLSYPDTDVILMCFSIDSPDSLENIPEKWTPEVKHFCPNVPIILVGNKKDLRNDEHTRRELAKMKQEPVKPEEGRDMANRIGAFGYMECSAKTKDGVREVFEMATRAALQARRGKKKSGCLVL
UniProt Q13233: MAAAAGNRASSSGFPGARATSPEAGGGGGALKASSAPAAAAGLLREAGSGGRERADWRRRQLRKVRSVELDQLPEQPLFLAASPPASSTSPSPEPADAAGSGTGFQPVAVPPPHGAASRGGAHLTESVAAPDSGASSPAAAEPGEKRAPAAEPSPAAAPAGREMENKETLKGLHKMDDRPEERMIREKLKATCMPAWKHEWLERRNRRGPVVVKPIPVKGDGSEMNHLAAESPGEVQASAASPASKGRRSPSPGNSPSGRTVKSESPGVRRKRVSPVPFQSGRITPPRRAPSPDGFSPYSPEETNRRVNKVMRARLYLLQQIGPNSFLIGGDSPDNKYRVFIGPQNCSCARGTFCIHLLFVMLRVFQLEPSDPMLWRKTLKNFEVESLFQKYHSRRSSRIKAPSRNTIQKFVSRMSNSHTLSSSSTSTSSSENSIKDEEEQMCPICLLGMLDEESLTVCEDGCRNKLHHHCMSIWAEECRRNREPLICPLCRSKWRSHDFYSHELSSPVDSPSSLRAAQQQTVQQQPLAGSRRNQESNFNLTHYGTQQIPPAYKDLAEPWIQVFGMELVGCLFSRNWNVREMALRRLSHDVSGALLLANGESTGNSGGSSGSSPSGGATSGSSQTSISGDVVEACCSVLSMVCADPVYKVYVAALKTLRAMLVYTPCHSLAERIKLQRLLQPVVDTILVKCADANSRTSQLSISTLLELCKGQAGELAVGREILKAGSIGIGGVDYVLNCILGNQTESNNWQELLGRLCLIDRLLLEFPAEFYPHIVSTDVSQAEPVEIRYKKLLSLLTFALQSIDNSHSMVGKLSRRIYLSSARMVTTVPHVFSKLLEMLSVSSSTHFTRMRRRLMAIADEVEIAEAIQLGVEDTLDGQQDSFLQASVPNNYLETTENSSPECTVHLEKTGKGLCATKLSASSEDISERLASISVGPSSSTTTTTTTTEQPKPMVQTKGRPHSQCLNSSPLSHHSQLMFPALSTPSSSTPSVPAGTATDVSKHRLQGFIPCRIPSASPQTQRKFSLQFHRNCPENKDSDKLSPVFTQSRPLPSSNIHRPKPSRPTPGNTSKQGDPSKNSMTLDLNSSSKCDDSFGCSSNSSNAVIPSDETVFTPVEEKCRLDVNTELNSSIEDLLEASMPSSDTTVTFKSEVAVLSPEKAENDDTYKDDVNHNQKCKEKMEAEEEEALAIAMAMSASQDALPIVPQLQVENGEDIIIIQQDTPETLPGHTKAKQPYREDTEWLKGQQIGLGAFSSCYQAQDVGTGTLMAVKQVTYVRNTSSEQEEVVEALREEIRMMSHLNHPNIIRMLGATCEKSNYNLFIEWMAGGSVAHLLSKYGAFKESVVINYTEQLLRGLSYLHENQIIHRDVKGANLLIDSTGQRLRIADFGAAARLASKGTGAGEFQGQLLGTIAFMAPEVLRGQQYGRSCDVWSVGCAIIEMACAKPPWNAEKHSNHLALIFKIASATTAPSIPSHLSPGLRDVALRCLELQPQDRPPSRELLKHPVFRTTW

Assays:
[1] = target: RHOA-LgBiT-N (RhoA fused to LgBiT) (human (from the RefSeq entry NM_001664; not said in words)) (UniProt P61586); assay: split reporter; NanoBiT in HEK293T cells co-transfected with SmBiT and LgBiT fusion plasmids (500 ng DNA in all, 24-well plate); 24 h after transfection medium replaced by OPTI-MEM, substrate added, signal read for 30 min; negative control: SmBiT-MAP3K1 plasmid alone
[2] = target: RHOA-3×Flag (human (from the RefSeq entry NM_001664; not said in words)) (UniProt P61586); assay: co-IP; HEK293T cells co-transfected with MAP3K1-3×HA and RHOA-3×Flag; 48 h after transfection lysed in modified RIPA buffer; anti-Flag or anti-HA magnetic beads overnight at 4°C; blot with anti-HA or anti-FLAG; ratio of Co-IP to IP band intensity

binding [1]	binding [2]	Substance
binds		MAP3K1-SmBiT-C (wild-type MAP3K1 fused to SmBiT) (from UniProt Q13233 1-1512) (enzyme)
	binds	MAP3K1-3×HA (wild type) (from UniProt Q13233 1-1512) (enzyme)
